B1: Cytochrome b5: human cytochrome b5, recombinant, expressed in Escherichia coli and purified (protein, UniProt P00167 2-134, looked up)
Cytochrome b5: AEQSDEAVKYYTLEEIQKHNHSKSTWLILHHKVYDLTKFLEEHPGGEEVLREQAGGDATENFEDVGHSTDAREMSKTFIIGELHPDDRPKLNKPPETLITTIDSSSSWWTNWVIPAISAVAVALMYRLYMAED

Assay: Specific content (hemoprotein concentration per mg protein) of purified proteins
Assay type: physicochemical
Details: purified proteins used in reconstitution assays

Molecule | Specific content [nmol/mg protein]
P450 3A4: recombinant human protein expressed in Escherichia coli and purified | 11
B1 | 60
